Measurements reported in PubChem BioAssay AID1259254 (NCATS, 2017).
In all, the deposit lists about 59,000 reagents; shown is an unselected part. About 1,550 of them (2.6%) count as active. 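G2 share is only a proxy for re-replication; each gene was hit by three separate siRNAs, and active genes were retested.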 The numbers tell different reagents against one gene apart. Not all columns of the deposit are shown. Not stated in the record: the amount of reagent.

- Screen: 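Genome-wide screen for genes that prevent DNA re-replication in cancer cells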 (primary screen)
- Cells: human HCT116 colorectal cancer cells
- Reagents: single siRNA against human genes
- Time to read-out: 3 days
- Detection: 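Imaged Hoechst DNA stain sorts each cell into a cycle phase by DNA amount; per plate, G2 fraction set to 0% for non-targeting and 100% for GMNN siRNA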
- Reading the numbers: G2 robust z-score and G2 cells, % of GMNN control: higher = more G2 cells, more excess DNA replication
- Rule for the call: 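Active siRNAs have a G2 robust z of 5 or more median absolute deviations over the median, which in these data means about 38% or higher of GMNN control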

gene | reagent | G2 robust z-score | G2 cells, % of GMNN control | activity call
BTG2-DT | 1 | 0.00728 | 3.02 | inactive
BTG2-DT | 2 | -0.548 | -0.888 | inactive
BTG2-DT | 3 | -1.12 | -4.91 | inactive
ACTR3C | 1 | -0.18 | 1.7 | inactive
ACTR3C | 2 | -0.797 | -2.64 | inactive
ACTR3C | 3 | 0.213 | 4.46 | inactive
NCAN | 1 | 1.71 | 15 | inactive
NCAN | 2 | -1.13 | -4.97 | inactive
NCAN | 3 | 0.334 | 5.32 | inactive
DKK2 | 1 | -0.648 | -1.59 | inactive
DKK2 | 2 | 2.73 | 22.2 | inactive
DKK2 | 3 | -0.9 | -3.36 | inactive

Look-ups from the list:
Under “G2 cells, % of GMNN control”, BTG2-DT #1 is entered as 3.02
BTG2-DT #3, activity call: inactive
For “G2 robust z-score”, BTG2-DT #2 is entered as -0.548
Under “G2 cells, % of GMNN control”, DKK2 #2 shows 22.2

Further results follow.
gene | reagent | G2 robust z-score | G2 cells, % of GMNN control | activity call
AFP | 1 | -0.952 | -3.73 | inactive
AFP | 2 | 1.7 | 14.9 | inactive
AFP | 3 | 0.784 | 8.49 | inactive
LINC00200 | 1 | 0.973 | 9.81 | inactive
LINC00200 | 2 | -0.337 | 0.593 | inactive
LINC00200 | 3 | -0.543 | -0.85 | inactive
AMD1P3 | 1 | -0.328 | 0.663 | inactive
AMD1P3 | 2 | 0.258 | 4.78 | inactive
AMD1P3 | 3 | 0.554 | 6.87 | inactive
CLDND1 | 1 | 0.244 | 4.68 | inactive
CLDND1 | 2 | 0.867 | 9.07 | inactive
CLDND1 | 3 | -0.139 | 1.99 | inactive
PAX9 | 1 | -1.18 | -5.36 | inactive
PAX9 | 2 | 2.61 | 21.3 | inactive
PAX9 | 3 | 0.341 | 5.37 | inactive
NUDCD1 | 1 | -0.942 | -3.66 | inactive
NUDCD1 | 2 | 3.04 | 24.4 | inactive
NUDCD1 | 3 | -0.046 | 2.64 | inactive
